Measured values published in paper PMC8573869.
Positions count from the first letter of the chain named. These are yes or no findings as the source states them, for the method shown. In cells and extracts the contact can be indirect. Some binding calls cover weakened binding; strength is not graded here. For some of these results: Where a sequence is shown, tags or fusion partners need not be part of it.

The chains behind the UniProt entries cited, without tags or fusion partners.
UniProt O95197: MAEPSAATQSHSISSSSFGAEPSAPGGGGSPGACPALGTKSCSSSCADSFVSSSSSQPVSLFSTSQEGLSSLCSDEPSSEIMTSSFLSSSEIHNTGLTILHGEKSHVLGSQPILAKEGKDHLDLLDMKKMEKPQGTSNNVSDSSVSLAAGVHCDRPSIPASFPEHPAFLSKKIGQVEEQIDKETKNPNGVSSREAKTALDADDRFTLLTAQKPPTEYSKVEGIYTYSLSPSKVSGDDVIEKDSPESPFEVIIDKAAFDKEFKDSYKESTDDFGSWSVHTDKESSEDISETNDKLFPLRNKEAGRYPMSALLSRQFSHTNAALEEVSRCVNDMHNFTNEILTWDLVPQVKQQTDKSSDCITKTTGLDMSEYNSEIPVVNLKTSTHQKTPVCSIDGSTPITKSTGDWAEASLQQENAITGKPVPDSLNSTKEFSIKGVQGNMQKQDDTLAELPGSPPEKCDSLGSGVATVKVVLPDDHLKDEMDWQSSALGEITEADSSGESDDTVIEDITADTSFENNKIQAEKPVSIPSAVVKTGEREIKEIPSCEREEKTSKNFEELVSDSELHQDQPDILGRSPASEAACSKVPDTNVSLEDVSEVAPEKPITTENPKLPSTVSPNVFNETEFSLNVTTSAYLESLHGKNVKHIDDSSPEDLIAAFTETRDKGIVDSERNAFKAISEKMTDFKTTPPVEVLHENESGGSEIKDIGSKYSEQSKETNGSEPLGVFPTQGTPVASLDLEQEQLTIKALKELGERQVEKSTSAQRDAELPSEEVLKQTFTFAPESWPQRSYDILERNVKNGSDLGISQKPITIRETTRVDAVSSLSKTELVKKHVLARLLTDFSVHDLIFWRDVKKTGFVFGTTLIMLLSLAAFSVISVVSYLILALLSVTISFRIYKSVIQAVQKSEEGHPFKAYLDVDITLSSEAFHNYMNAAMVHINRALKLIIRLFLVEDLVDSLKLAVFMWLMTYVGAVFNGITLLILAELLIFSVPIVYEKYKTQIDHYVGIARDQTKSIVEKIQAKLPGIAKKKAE

T1: FLAG-tagged dominant-active Rab32Q85L (UniProt Q13637)
T1 sequence: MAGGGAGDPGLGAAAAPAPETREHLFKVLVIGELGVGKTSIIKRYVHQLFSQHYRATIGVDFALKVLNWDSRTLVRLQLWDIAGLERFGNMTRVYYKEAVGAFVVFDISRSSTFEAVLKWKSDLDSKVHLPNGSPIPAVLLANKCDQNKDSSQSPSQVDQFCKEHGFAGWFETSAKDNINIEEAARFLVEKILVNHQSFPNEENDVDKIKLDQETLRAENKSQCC

T2: FLAG-tagged dominant-negative Rab32T39N (UniProt Q13637)
T2 sequence: T1 sequence with T39N, L85Q

B1: endogenous Rab32 (protein, UniProt Q13637 1-225)
chain: T1 sequence with L85Q
B2: endogenous cell cycle progression 1 (CCPG1) (protein, UniProt Q9ULG6 1-757)
chain: MSENSSDSDSSCGWTVISHEGSDIEMLNSVTPTDSCEPAPECSSLEQEELQALQIEQGESSQNGTVLMEETAYPALEETSSTIEAEEQKIPEDSIYIGTASDDSDIVTLEPPKLEEIGNQEVVIVEEAQSSEDFNMGSSSSSQYTFCQPETVFSSQPSDDESSSDETSNQPSPAFRRRRARKKTVSASESEDRLVAEQETEPSKELSKRQFSSGLNKCVILALVIAISMGFGHFYGTIQIQKRQQLVRKIHEDELNDMKDYLSQCQQEQESFIDYKSLKENLARCWTLTEAEKMSFETQKTNLATENQYLRVSLEKEEKALSSLQEELNKLREQIRILEDKGTSTELVKENQKLKQHLEEEKQKKHSFLSQRETLLTEAKMLKRELERERLVTTALRGELQQLSGSQLHGKSDSPNVYTEKKEIAILRERLTELERKLTFEQQRSDLWERLYVEAKDQNGKQGTDGKKKGGRGSHRAKNKSKETFLGSVKETFDAMKNSTKEFVRHHKEKIKQAKEAVKENLKKFSDSVKSTFRHFKDTTKNIFDEKGNKRFGATKEAAEKPRTVFSDYLHPQYKAPTENHHNRGPTMQNDGRKEKPVHFKEFRKNTNSKKCSPGHDCRENSHSFRKACSGVFDCAQQESMSLFNTVVNPIRMDEFRQIIQRYMLKELDTFCHWNELDQFINKFFLNGVFIHDQKLFTDFVNDVKDYLRNMKEYEVDNDGVFEKLDEYIYRHFFGHTFSPPYGPRSVYIKPCHYSSL

How the values were obtained:
[1] = target: T1, FLAG-tagged dominant-active Rab32Q85L; assay: co-IP; MCF7 cells transfected for 48 h with FLAG-tagged Rab32 constructs; crosslinked with 2 mM DSP 30 min at room temperature, lysed in Chaps buffer (150 mM NaCl, 10 mM Tris pH 7.4, 1 mM EDTA, 1% Chaps); anti-FLAG precipitation on Protein A Sepharose; blot for the endogenous partner
[2] = target: HA-tagged RTN3L (expressed in MCF7 cells) (UniProt O95197); assay: co-IP; MCF7 cells transfected with HA-tagged RTN3L; lysis, anti-HA precipitation; blot for endogenous Rab32 (the legend names no crosslinking)
[3] = target: T2, FLAG-tagged dominant-negative Rab32T39N; assay: co-IP; MCF7 cells transfected for 48 h with FLAG-tagged Rab32 constructs; crosslinked with 2 mM DSP 30 min at room temperature, lysed in Chaps buffer (150 mM NaCl, 10 mM Tris pH 7.4, 1 mM EDTA, 1% Chaps); anti-FLAG precipitation on Protein A Sepharose; blot for the endogenous partner

binding [1] | binding [2] | binding [3] | Molecule
binds |  |  | endogenous long reticulon-3 (RTN3L) (from UniProt O95197 1-1032)
 | binds |  | B1
no binding |  | no binding | B2
